# From PubChem BioAssay AID2685 (National Center for Advancing Translational Sciences (NCATS), 2010)
# The other results are listed elsewhere or left out. The main result of the screen is listed elsewhere. These columns were measured beside it and carry no call. The list favours compounds with an active or inconclusive main result. Potencies come from curve fits of mixed quality, noted in brackets.
# Assay: qHTS Assay for Lipid Storage Modulators in Drosophila S3 Cells;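 for cell number change: cells counted by Cell Tracker Red CMTPX staining in the red channel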
# Details: BODIPY lipid droplet fluorescence, 18-24 h; for cell number change: measured here: cell count max response, cells fed with added oleic acid
# Summary of the method: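 Drosophila S3 cells got compounds at several concentrations plus oleic acid (400 uM solution). Laser-scanning cytometry with 488 nm excitation read lipid droplets at 500-530 nm and cells at 575-640 nm. Percent activity was relative to 20 uM Triacsin C.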
# [1] = measured here: cell number channel AC50, cells fed with added oleic acid
# [2] = measured here: lipid fluorescence (Fed channel) AC50, cells fed with added oleic acid
Compound,cell number change,AC50 [1],AC50 [2]
O=S(=O)(Nc1nc2ccccc2nc1NCc1ccco1)c1ccc(F)cc1,37%,"18.4 µM [rising, single point]",
CCOC(=O)N1CCN(CCC(=O)Nc2cccc(Cl)c2C)CC1,-1.46%,,
O=C(/C=C/Sc1ncn[nH]1)c1ccc(Cl)cc1,-18.4%,,"29.1 µM [falling, single point]"
Cc1ccc(C)c(S(=O)(=O)Nc2cc3c4c(c2)CCC(=O)N4CCC3)c1,,"2.31 µM [rising, partial curve, poor fit]",
Cc1nc2c3ccccc3nc(NNC(=O)CCC(=O)N3CCCC(C)C3)n2n1 (stereo not drawn),-10.4%,,"16.4 µM [rising, partial curve]"
COc1cccc(CNC(=O)COC(=O)c2nc(Cl)c(Cl)c(Cl)c2Cl)c1,,,"7.31 µM [falling, partial curve]"
CCC1(c2ccc(F)cc2)NC(=O)N(CC(=O)N2CCc3ccccc32)C1=O (stereo not drawn),-5.62%,,"7.31 µM [falling, partial curve]"
CCOc1ccc(S(=O)(=O)N2CCC(C(=O)NC3CC3)CC2)cc1Cl,32.9%,"0.00411 µM [rising, full curve, poor fit]","6.31 µM [falling, single point]"
Cc1ccc(C2=NN(S(C)(=O)=O)C(c3cccs3)C2)cc1 (stereo not drawn),4.09%,,"0.164 µM [rising, full curve, poor fit]"
Cc1ccc(CSCCNC(=O)c2ccc(Cl)c(S(=O)(=O)N3CCOCC3)c2)cc1,-1.33%,,"6.51 µM [falling, single point]"
Cc1ccc(OCCNc2ccc(S(=O)(=O)N3CCCC3)cn2)cc1,-2.03%,,
O=C(c1cccs1)N1CCN(c2ccccc2)CC1,9.15%,,
CCOC(=O)Cc1cc(-c2ccc(OC)cc2)nc2ccc3ccccc3c12,-1.97%,,
COC(=O)c1ccc(C2C(Oc3ccccc3C)C(=O)N2CCc2ccc(OC)c(OC)c2)cc1 (stereo not drawn),-1.13%,,"0.58 µM [rising, single point]"
Cc1cc(C)n(C(=O)c2ccc(S(=O)(=O)N3CCOCC3)cc2)n1,-52.6%,"29.1 µM [falling, single point]","23.1 µM [falling, single point]"
COc1ccc([C@@H]2[C@@H]3C(=O)N(C(C)(C)C)C(=O)[C@@H]3[C@]3(Cc4ccccc4)C(=O)N(c4cccc(C)c4)C(=O)N23)cc1,12.1%,,"0.206 µM [rising, full curve, poor fit]"

Compound,cell number change,AC50 [1],AC50 [2]
Nc1ccc(-c2cnc[nH]2)cc1[N+](=O)[O-],13.9%,,"4.11 µM [rising, full curve, poor fit]"
CCC(C)NC(=O)C(Cc1ccccc1)NS(=O)(=O)c1ccc2c(c1)CCC(=O)N2 (stereo not drawn),,,"0.116 µM [falling, single point]"
CCN(CC(=O)Nc1c(F)cccc1F)C(=O)c1csc2c1CCCC2,-14.7%,"0.00461 µM [falling, full curve, poor fit]","0.00461 µM [falling, full curve, poor fit]"
C/C(=N/NC(=O)c1cc(-c2ccc(Cl)s2)[nH]n1)c1ccco1,-10.2%,,
CC(NS(=O)(=O)c1ccc(OCC(=O)NCc2ccccn2)cc1)c1ccccc1 (stereo not drawn),-1.8%,,"11.6 µM [falling, single point]"
CC1CCC(C(=O)NNC(=O)c2cc(-c3ccco3)[nH]n2)CC1 (stereo not drawn),7.35%,,"29.1 µM [rising, single point]"
COCCCn1c(SCC(=O)N2CCOCC2)nc2cc(Cl)ccc2c1=O,2.39%,,"6.51 µM [falling, single point]"
CC1(C)CC(=O)C=C(c2ccc(I)cc2)C1,18.4%,"0.146 µM [falling, single point]",
N/C(=N\OC(=O)c1ccc2ccccc2c1)c1ccccc1Cl,57.6%,"29.1 µM [rising, single point]","2.91 µM [falling, single point]"
O=C(NCC1(N2CCOCC2)CCCCC1)c1cccc(S(=O)(=O)Nc2ccc(F)cc2)c1,-14%,,
CCCS(=O)(=O)N1CCCC(C(=O)NCCCN2CCCC2=O)C1 (stereo not drawn),19.5%,,"0.731 µM [falling, single point]"
O=C(O)CS(=O)(=O)CC(=O)O,-38.8%,"0.517 µM [falling, full curve]",
CNC(=O)CN1C(=O)NC2(CCc3ccccc3C2)C1=O (stereo not drawn),14.2%,"0.184 µM [falling, full curve]","6.51 µM [falling, single point]"
C=CCn1c(COc2cccc(C)c2C)nnc1SCC(=O)N1CCN(c2ccccc2)CC1,-13.2%,,"20.6 µM [falling, single point]"
C[C@@H]1CN(c2c(F)c(F)c3c(=O)c(C(=O)O)cn(C4CC4)c3c2F)C[C@H](C)N1,267%,,"10.3 µM [falling, partial curve]"

# Reformatted with bars between the fields: 6 of the compounds above
Compound | cell number change | AC50 [1] | AC50 [2]
CCC(C)NC(=O)C(Cc1ccccc1)NS(=O)(=O)c1ccc2c(c1)CCC(=O)N2 (stereo not drawn) |  |  | 0.116 µM [falling, single point]
CCN(CC(=O)Nc1c(F)cccc1F)C(=O)c1csc2c1CCCC2 | -14.7% | 0.00461 µM [falling, full curve, poor fit] | 0.00461 µM [falling, full curve, poor fit]
C/C(=N/NC(=O)c1cc(-c2ccc(Cl)s2)[nH]n1)c1ccco1 | -10.2% |  | 
CC(NS(=O)(=O)c1ccc(OCC(=O)NCc2ccccn2)cc1)c1ccccc1 (stereo not drawn) | -1.8% |  | 11.6 µM [falling, single point]
CC1CCC(C(=O)NNC(=O)c2cc(-c3ccco3)[nH]n2)CC1 (stereo not drawn) | 7.35% |  | 29.1 µM [rising, single point]
COCCCn1c(SCC(=O)N2CCOCC2)nc2cc(Cl)ccc2c1=O | 2.39% |  | 6.51 µM [falling, single point]
